Source: PubChem BioAssay AID504834 (National Center for Advancing Translational Sciences (NCATS), 2011)
About 22,000 (6.9%) of roughly 320,000 compounds were called active. The inconclusive results got no clear call from the source; some entries with a clear call stand among them for comparison. Calls follow the shape of the dose curve; as a rule, active = well fitted inhibition curve with a large enough effect; inconclusive = small, poorly fitted or top-dose-only effect, or another doubt; inactive = no such curve, though single readings can be large or run the other way. Potencies beside an inconclusive call are fits to weak or partial responses and may not hold up.

experiment: Primary qHTS for delayed death inhibitors of the malarial parasite plastid, 96 hour incubation; details: P. falciparum luciferase reporter growth; series mostly up to 28.7 µM
Procedure, shortened: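 Two-generation exposure (96 h) targets delayed-death phenotype. Reporter parasites carrying integrated firefly luciferase, in red cells at 2% hematocrit and 0.05% parasitemia final, kept at 37 C, 5% CO2; luminescence loss indicates inhibition.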
Potency is read from the fitted curve at half-maximal effect.

| SMILES | Potency |
| --- | --- |
| Cc1cc(NC(=O)CCC(=O)N(CC(=O)NCC2CCCO2)c2ccc(C(C)C)cc2)no1 (stereo not given) | inconclusive: 5.22 µM [inhibitor, partial curve] |
| COc1cccc(-n2c(-c3cccc(S(=O)(=O)N(C)C)c3)n[nH]c2=S)c1 | inconclusive: 8.28 µM [inhibitor, partial curve] |
| C=CCOc1ccccc1CN1CCC(n2nccc2NC(=O)C2CCOC2)CC1 (stereo not given) | inconclusive: 11.7 µM [inhibitor, partial curve] |
| Cc1ccc(SCC(=O)NCC(C)C)cc1 | inactive |
| COc1ccc(C)cc1NC(=O)CSc1nnc(COc2ccc(C)cc2)n1Cc1ccco1 | inconclusive: 10.4 µM [inhibitor, partial curve, poor fit] |
| CC(CNC(=O)CCS(=O)(=O)c1ccc2c(c1)NC(=O)CO2)c1ccccc1 (stereo not given) | inconclusive: 18.5 µM [inhibitor, single point] |
| CCCCOC(=O)c1ccc(NC(=O)c2c(Cl)ccc(Cl)c2OC)cc1 | active: 5.22 µM |
| O=S(=O)(Cc1ccccc1)NCC1CCCN(Cc2ccc3nonc3c2)C1 (stereo not given) | inactive |
| N#Cc1ccccc1NC(=O)CN1C(=O)NC(Cc2c[nH]c3ccccc23)C1=O (stereo not given) | inconclusive: 18.5 µM [inhibitor, single point] |
| Cc1ccc(-n2cc(-c3ccccc3)c3c(N4CCN(C)CC4)ncnc32)cc1 | inactive |
| Cc1cccc(/C(N)=N/OC(=O)N2c3ccccc3Sc3ccccc32)c1 | active: 6.57 µM |
| CCCCc1c(C)c2ccc(OC)c(/C(C)=N\O)c2oc1=O | inactive |
| CC(C)(C)C(=O)COC(=O)c1cc(-c2ccncc2)nc2ccccc12 | inconclusive: 14.7 µM [inhibitor, single point] |
| Cc1[nH]nc(SCC(=O)NCc2ccc(F)cc2)c1[N+](=O)[O-] | inconclusive: 1.17 µM [inhibitor, partial curve, poor fit] |
| CSCCOC(=O)C1=C(C)NC(=O)CC1c1ccccc1Cl (stereo not given) | inconclusive: 11.7 µM [inhibitor, single point] |
| COc1ccc([C@H]2CC(=O)C=C(c3ccc4ccccc4c3)C2)cc1OC | inconclusive: 0.0131 µM [inhibitor, full curve, poor fit] |
| CCc1nc(N2CCOCC2)c(C#N)c2c1CCCC2 | inactive |
| O=C(NCc1nc(-c2ccccc2)no1)c1ccc(Br)o1 | inconclusive: 18.5 µM [inhibitor, single point] |
| O=C(COc1ncnc2ccccc12)Nc1cccc(S(=O)(=O)N2CCOCC2)c1 | inconclusive: 11.7 µM [inhibitor, single point] |
| O=C(CCc1ccc(S(=O)(=O)NCCc2ccccc2)cc1)N1CCN(Cc2ccc3c(c2)OCO3)CC1 | inconclusive: 9.28 µM [inhibitor, partial curve, poor fit] |
| COCCNC(=O)C1CC(=O)N(C2CCCC2)C1 (stereo not given) | inconclusive: 16.5 µM [inhibitor, single point] |
| Cn1c(=O)c2c(nc(SCc3nc(N)nc(N4CCCCC4)n3)n2C)n(C)c1=O | inconclusive: 0.0657 µM [inhibitor, full curve, poor fit] |
| CCCCn1nc(C(=O)Nc2ccccc2N2CCCC2)c2ccccc2c1=O | inconclusive: 18.5 µM [inhibitor, single point] |
| C#CCn1c(=NC(=O)c2cccs2)sc2cccc(OCC)c21 | inconclusive: 18.5 µM [inhibitor, single point] |

As entered above:
O=S(=O)(Cc1ccccc1)NCC1CCCN(Cc2ccc3nonc3c2)C1 (stereo not given) – Potency: inactive
CCCCOC(=O)c1ccc(NC(=O)c2c(Cl)ccc(Cl)c2OC)cc1 – Potency: active: 5.22 µM
Cc1ccc(-n2cc(-c3ccccc3)c3c(N4CCN(C)CC4)ncnc32)cc1 – Potency: inactive
O=C(NCc1nc(-c2ccccc2)no1)c1ccc(Br)o1 – Potency: inconclusive: 18.5 µM [inhibitor, single point]
COc1ccc([C@H]2CC(=O)C=C(c3ccc4ccccc4c3)C2)cc1OC – Potency: inconclusive: 0.0131 µM [inhibitor, full curve, poor fit]

More entries

| SMILES | Potency |
| --- | --- |
| O=Cc1sc(=O)n(Cc2cccc(C(=O)O)c2)c1Cl | inactive |
| O=C(CCn1nnc2ccccc21)OCC(=O)c1ccc([N+](=O)[O-])cc1 | inconclusive: 4.15 µM [inhibitor, partial curve] |
| CCOC(=O)CNC(=O)c1c(C)nn(C)c1Cl | inactive |
| Cc1ccc(C)n1-c1ccc(-c2ccnc(N)n2)cc1 | inconclusive: 18.5 µM [inhibitor, single point] |
| COc1ccc(CNCc2c(F)cccc2F)cc1OC | inconclusive: 11.7 µM [inhibitor, single point] |
| O=C(Nc1ccc(Nc2ccncc2)cc1)c1ccc(Nc2ccnc3ccc([N+](=O)[O-])cc23)cc1[N+](=O)[O-] | active: 0.522 µM |
| CCOC(=O)C(=CNc1cccc(C)n1)C(=O)OCC | inconclusive: 0.0657 µM [inhibitor, full curve, poor fit] |
| O=C(COc1ccc(Br)cc1CNC1CCCC1)Nc1ccccc1 | inactive |
| Cc1oc2ccc(O)c(CN3CCOCC3)c2c1C(C)O (stereo not given) | inactive |
| COc1ccc(N2C(=O)CC(Sc3nnnn3-c3ccc(F)cc3)C2=O)cc1 (stereo not given) | inconclusive: 18.5 µM [inhibitor, single point] |
| Cc1ccc(S(=O)(=O)NCCOc2cc(C)ccc2C)cc1 | inconclusive: 7.38 µM [inhibitor, partial curve, poor fit] |
| COCCNC(=S)N1CCCN(c2nc3cc(C)ccc3cc2C#N)CC1 | inconclusive: 18.5 µM [inhibitor, single point] |
| CCCCNC(=O)N(O)C1N(/N=C/c2ccccc2O)C(=S)SC1(C)C (stereo not given) | active: 3.29 µM |
| O=C(NCc1ccc2[nH]c3c(c2c1)CCCC3)c1ccc(S(=O)(=O)N2CCCCC2)cc1 | active: 10.4 µM |
| O=C(Nc1ccc(S(=O)(=O)N2CCCCCC2)cc1)c1c(F)cccc1F | inconclusive: 20.8 µM [inhibitor, partial curve, poor fit] |
| CCCCSc1nnc(-c2cc3c(C(F)(F)F)nn(C)c3s2)n1C | inconclusive: 0.0029 µM [inhibitor, full curve] |
| CC(=O)Nc1ccccc1OC(C)C(=O)N1CC(C)CC(C)C1 (stereo not given) | inconclusive: 18.5 µM [inhibitor, single point] |
| O=C(NCC1CCCO1)Nc1ccc2c(c1)OCO2 (stereo not given) | inconclusive: 18.5 µM [inhibitor, single point] |
| CC(C)(CNC(=O)c1cc([N+](=O)[O-])ccc1N1CCC(Cc2ccccc2)CC1)N1CCOCC1 | inconclusive: 14.7 µM [inhibitor, partial curve, poor fit] |
| O=[N+]([O-])c1cccc(Nc2c([N+](=O)[O-])ccc3nonc23)c1 | inactive |
| CS(=O)(=O)c1nc(-c2ccccc2)cc(-c2ccccc2)c1C#N | active: 1.65 µM |
| CC(C(=O)NCc1ccccc1)N(CCN1CCOCC1)C(=O)c1snc(C(N)=O)c1N (stereo not given) | inconclusive: 0.586 µM [inhibitor, full curve, poor fit] |
| CC(C)(C)c1ccc(/C=C/C(=O)NCCCN2CCOCC2)cc1 | inconclusive: 18.5 µM [inhibitor, single point] |
| COc1ccc(OC)c(CNC(=O)CCS(=O)(=O)c2ccc3c(c2)oc(=O)n3C)c1 | inconclusive: 18.5 µM [inhibitor, single point] |

| SMILES | Potency |
| --- | --- |
| O=C(NCc1ccco1)c1ccc(CS(=O)(=O)Cc2ccc(F)cc2)o1 | active: 8.28 µM |
| COc1ccc(S(=O)(=O)N(C)c2ccc(C(=O)N3CCC(C(N)=O)CC3)cc2)cc1OC | inactive |
| CCCCC(=O)Nc1ccc2c(c1)nc(CCN1CCN(C)CC1)n2C | inactive |
| CN(c1ccc(C(=O)N2CCCCCC2)cc1)S(=O)(=O)c1ccccc1 | inconclusive: 18.5 µM [inhibitor, single point] |
| CCC(=O)Nc1sc(C(=O)N2CCCCC2)c(C)c1C#N | active: 14.7 µM |
| Cc1ccc(C(=O)NCCn2c(N)c(C#N)c3nc4ccccc4nc32)cc1 | inconclusive: 13.1 µM [inhibitor, partial curve] |
| COc1ccc2[nH]c(C(=O)NCCN3CCCCC3)cc2c1 | inactive |
| CC(C)=CC(=O)OCC(=O)NC(=O)NC(C)(C)C | inconclusive: 18.5 µM [inhibitor, single point] |
| C[C@H](NC(=O)c1[nH]cnc1C(=O)Nc1ccc(CNC(=O)OC(C)(C)C)cc1)C(=O)OC(C)(C)C | active: 9.28 µM |
| NS(=O)(=O)c1ccc(CCNC(=O)c2ccc([N+](=O)[O-])s2)cc1 | inconclusive: 10.4 µM [inhibitor, single point] |
| O=C(CSc1nnc(CCCN2C(=O)c3cccc4cccc(c34)C2=O)n1-c1ccccc1)N1CCN(CCO)CC1 | inconclusive: 18.5 µM [inhibitor, partial curve, poor fit] |
| N/C(=N\OC(=O)c1ccco1)c1cccnc1 | inactive |
| CCOC(=O)NNC(=O)c1ccc(Cl)cc1 | inconclusive: 0.147 µM [inhibitor, full curve, poor fit] |
| Cc1cc2oc(=O)cc(CN3CCN(S(=O)(=O)c4cccs4)CC3)c2cc1C(C)C | inconclusive: 2.33 µM [inhibitor, full curve] |
| Cc1cccc(C(=O)OC(C)CN2CCCC2)c1 (stereo not given) | inconclusive: 18.5 µM [inhibitor, single point] |
| Cc1cccc(N2C(=O)NC(=O)/C(=C/c3ccc([N+](=O)[O-])o3)C2=O)c1 | inactive |
| CCOc1ccc(NC(=O)CN(C)C(=O)c2cc(C)nc3ccccc23)cc1OCC | inconclusive: 10.4 µM [inhibitor, single point] |
| O=C(CSc1ccsc1[N+](=O)[O-])NCc1ccccc1 | active: 14.7 µM |
| CC1=C(C(=O)O)N2C(=O)C(NC(=O)c3ccc(F)cc3)C2SC1 (stereo not given) | inactive |
| COc1ccc(C2=NN(C(=O)CSc3nc(=O)n4ccc(C)cc4n3)C(c3ccc(C)cc3)C2)cc1 (stereo not given) | inconclusive: 11.7 µM [inhibitor, partial curve] |
| Cc1cc(C)n2cc(CSc3ccc(Br)cc3)nc2n1 | inactive |
| COc1ccc(C(=O)NCCc2cc3ccc(C)c(C)c3[nH]c2=O)cc1OC | inconclusive: 1.31 µM [inhibitor, partial curve, poor fit] |
